At least one compound was matched to its structure with a doubt left.
Test system: hADSC
Assay: Chemical reprogramming of hADSC per Example 6A, OCT4-positive hCiPSC clones
Format: cell-based, human
Conditions: 6+4+8; added to Stage II induction medium (RA 5 μM, GSK3685032 0.02 μM); FIG. 29
Protocol: In short, hADSC or hASF are seeded at 1×10^4 cells/well in a 12-well plate, or at 0.5-0.6×10^4 cells/well in a 24-well plate, and cultured overnight. The next day, the medium is replaced with Stage I induction medium (Knockout DMEM supplemented with 2% B27 supplement, 1% KSR, 1% GlutaMAX, 1% NEAA, 1% penicillin-streptomycin, […] Vc2p, 5 mM LiCl, 1 mM NAM, 20 ng/mL BMP4, 5 μM CHIR999021, 10 μM 616452, 2 μM TTNPB, 0.5 μM SAG, 2 μM EPZ5676, 0.05 μM DZNep, 1 μM ruxolitinib, 0.5 μM VTP50469, 1 μM HY-10249A (CAS No. 842148-40-7), 0.2 μM JNKIN8, and 0.2 μM SETD2-IN-1), and cultured under hypoxic conditions (5% 02) until a monolayer of epithelial-like cells appears and reaches approximately 100% confluence. hADSC cells typically require 8-10 days, and hASFs typically require 9-16 days. […]
OCT4 immunofluorescent staining is performed on the obtained hCiPSC clones, with OCT4 positivity serving as an indicator of hCiPSC clones. The reprogramming efficiency of the method is calculated by dividing the number of OCT4-positive clones by the number of initial hADSC or hASFs plated. […]

## CC1=C(/C=C/C(C)=C/C=C/C(C)=C/C(=O)O)C(C)(C)CCC1 [RA, retinoic acid]
  transformation into pluripotent stem cells vs control: significantly improve the transformation of LIN28A-positive monolayer epithelial-like cells into pluripotent stem cells
